# Test results: patent US7998959B2, “Modulators of 11-β hydroxyl steroid dehydrogenase type 1, pharmaceutical compositions thereof, and methods of using the same” (Incyte Corporation, priority 2006, dated 2011)
# Sequences of proteins named here, by UniProt entry; tags and fusion partners are left off. A change or cut given only in a name is not applied to a line headed by its entry.
# UniProt P28845: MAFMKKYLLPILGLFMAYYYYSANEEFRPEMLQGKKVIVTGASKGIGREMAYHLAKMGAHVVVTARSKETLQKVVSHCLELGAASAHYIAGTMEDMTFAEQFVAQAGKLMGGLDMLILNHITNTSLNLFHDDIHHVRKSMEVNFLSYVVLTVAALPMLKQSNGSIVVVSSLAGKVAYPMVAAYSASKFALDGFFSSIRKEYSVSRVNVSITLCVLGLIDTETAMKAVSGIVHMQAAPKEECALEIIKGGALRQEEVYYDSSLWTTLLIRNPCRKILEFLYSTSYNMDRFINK
# For at least one compound, name, drawing or mass did not settle the structure.
# Target: T1, human 11βHSD1 (Homo sapiens, UniProt P28845)
# T1 construct: made in house; host or cells: HEK-293 transient transfectants; clarified lysate, not purified
# Assay: Enzymatic Assay of 11βHSD1 (Scintillation Proximity Assay, clarified lysates)
# Assay type: biochemical
# Details: product derived from intermediate peak 2 compared with product derived from peak 1 (diastereomers, Example 32 step 2)
structure (smiles),measurement,value
"O=C1N(C2CCCCC2)CCC12C[C@@H](O)CN2Cc1ccc(Cl)cc1 (single isomer, unassigned) [Example 32]",enzymatic binding activity,better enzymatic binding activity
